Measurements: publication PMC11264951
Results are given in words; binding and its absence hold for the method and conditions named. In cells and extracts the contact can be indirect. A yes stands for co-enrichment or nearness to the bait. Other partners may have been found.

T1: methyltransferase-like protein 16 (METTL16) (mouse (endogenous in P10 testes)) (UniProt Q9CQG2)
T1 sequence: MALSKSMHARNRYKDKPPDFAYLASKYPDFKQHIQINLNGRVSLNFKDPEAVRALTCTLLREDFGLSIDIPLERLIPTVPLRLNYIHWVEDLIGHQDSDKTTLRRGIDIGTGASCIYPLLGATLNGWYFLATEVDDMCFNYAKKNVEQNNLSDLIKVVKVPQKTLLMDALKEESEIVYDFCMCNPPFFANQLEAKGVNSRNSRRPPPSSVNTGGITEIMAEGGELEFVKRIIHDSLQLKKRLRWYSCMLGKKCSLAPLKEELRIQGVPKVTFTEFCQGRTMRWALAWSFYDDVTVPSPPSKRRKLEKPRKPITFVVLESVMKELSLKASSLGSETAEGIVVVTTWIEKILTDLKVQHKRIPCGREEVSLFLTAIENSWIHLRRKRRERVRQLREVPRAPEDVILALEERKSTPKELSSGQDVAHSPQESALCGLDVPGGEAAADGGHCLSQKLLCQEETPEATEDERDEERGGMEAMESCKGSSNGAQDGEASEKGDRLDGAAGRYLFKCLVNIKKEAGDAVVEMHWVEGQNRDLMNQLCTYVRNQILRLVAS

B1: RNA binding motif protein 46 (RBM46) (protein, UniProt P86049 1-533)
chain: MNEENTDGTNGCSKVRTGTQNEAALLALMEKTGYNMVQENGQRKFGGPPPGWEGPPPPRGCEVFVGKIPRDMYEDELVPVFERAGKIYEFRLMMEFSGENRGYAFVMYTTKEEAQLAIRILNNYEIRPGKFIGVCVSLDNCRLFIGAIPKEKKKEEILDEMKKVTEGVVDVIVYPSATDKTKNRGFAFVEYESHRAAAMARRKLIPGTFQLWGHTIQVDWADPEKEVDEETMQRVKVLYVRNLMISTTEETIKAEFSKFKPGAVERVKKLRDYAFVHFFHREDAVAAMSVMNGKCIDGASIEVTLAKPVNKENTWRQHLNGQISPNSENLLVYANKEESHSKSLGKPPTLPTRLNGQHSPSPPEIERCTYPFFPGTKLTPISMYSLKSNHFNSAVMHLDYYCNKNNWAPPEYYLYSTTSQDGKVLLVYKIVIPAIANGSQSYFMPDKLCTTLEDAKELAAQFTLLHLDFNFRRSSINSLSPVSTTLSSGTPSMLPYTSRPSSYPSYPLSPTISLANGSHVGQRLYISNQASFF
B2: splicing factors 3b subunit 1 (SF3B1) (protein, UniProt Q99NB9 1-1304)
chain: MAKIAKTHEDIEAQIREIQGKKAALDEAQGVGLDSTGYYDQEIYGGSDSRFAGYVTSIAATELEDDDDDYSSSTSLLGQKKPGYHAPVALLNDIPQSTEQYDPFAEHRPPKIADREDEYKKHRRTMIISPERLDPFADGGKTPDPKMNARTYMDVMREQHLTKEEREIRQQLAEKAKAGELKVVNGAAASQPPSKRKRRWDQTADQTPGATPKKLSSWDQAETPGHTPSLRWDETPGRAKGSETPGATPGSKIWDPTPSHTPAGAATPGRGDTPGHATPGHGGATSSARKNRWDETPKTERDTPGHGSGWAETPRTDRGGDSIGETPTPGASKRKSRWDETPASQMGGSTPVLTPGKTPIGTPAMNMATPTPGHIMSMTPEQLQAWRWEREIDERNRPLSDEELDAMFPEGYKVLPPPAGYVPIRTPARKLTATPTPLGGMTGFHMQTEDRTMKSVNDQPSGNLPFLKPDDIQYFDKLLVDVDESTLSPEEQKERKIMKLLLKIKNGTPPMRKAALRQITDKAREFGAGPLFNQILPLLMSPTLEDQERHLLVKVIDRILYKLDDLVRPYVHKILVVIEPLLIDEDYYARVEGREIISNLAKAAGLATMISTMRPDIDNMDEYVRNTTARAFAVVASALGIPSLLPFLKAVCKSKKSWQARHTGIKIVQQIAILMGCAILPHLRSLVEIIEHGLVDEQQKVRTISALAIAALAEAATPYGIESFDSVLKPLWKGIRQHRGKGLAAFLKAIGYLIPLMDAEYANYYTREVMLILIREFQSPDEEMKKIVLKVVKQCCGTDGVEANYIKTEILPPFFKHFWQHRMALDRRNYRQLVDTTVELANKVGAAEIISRIVDDLKDEAEQYRKMVMETIEKIMGNLGAADIDHKLEEQLIDGILYAFQEQTTEDSVMLNGFGTVVNALGKRVKPYLPQICGTVLWRLNNKSAKVRQQAADLISRTAVVMKTCQEEKLMGHLGVVLYEYLGEEYPEVLGSILGALKAIVNVIGMHKMTPPIKDLLPRLTPILKNRHEKVQENCIDLVGRIADRGAEYVSAREWMRICFELLELLKAHKKAIRRATVNTFGYIAKAIGPHDVLATLLNNLKVQERQNRVCTTVAIAIVAETCSPFTVLPALMNEYRVPELNVQNGVLKSLSFLFEYIGEMGKDYIYAVTPLLEDALMDRDLVHRQTASAVVQHMSLGVYGFGCEDSLNHLLNYVWPNVFETSPHVIQAVMGALEGLRVAIGPCRMLQYCLQGLFHPARKVRDVYWKIYNSIYIGSQDALIAHYPRIYNDDKNTYIRYDLDYIL
B3: YTHDC2 (protein, UniProt B2RR83 1-1445)
chain: MSRPSSVSPRPPAPSGGGTGGGGGGSGGGGGGGGGGPASCGPGGGGRAKGLKDIRIDEEVKIAVNIALERFRYGDQREMEFPSSLTSTERAFIHRLSQSLGLVSKSKGKGANRYLTVKKKDGSETAHAMMTCNLTHNTKHAVRSLIQRFPVTNKERTELLPKTERGNVFAVEAENREMSKTSGRLNNGIPQVPVKRGESEFDSFRQSLPVFEKQEEIVKIIKENKVVLIVGETGSGKTTQIPQFLLDDCFKNGIPCRIFCTQPRRLAAIAVAERVAAERRERIGQTIGYQIRLESRVSPKTLLTFCTNGVLLRTLMAGDSTLSTVTHVIVDEVHERDRFSDFLLTKLRDLLQKHPTLKLILSSAALDVNLFIRYFGSCPVIYIQGRPFEVKEMFLEDILRTTGYTNKEMLKYKKEKQREEKQQTTLTEWYSAQENTFKPESQRQRAVASVSEEYDLLDDGGDAVFSQLTEKDVNCLEPWLIKEMDACLSDIWLHKDVDAFAQVFHLILTENVSVDYRHSETSATALMVAAGRGFTSQVEQLISMGANVHSKASNGWMALDWAKHFGQTEIVDLLESYSASLEFGNLDESSLVQTNGNDLSAEDRELLKAYHHSFDDEKVDLDLIMHLLYNICHSCDAGAILIFLPGYDEIVGLRDRILFDDKRFADNTHRYQVFMLHSNMQTSDQKKVLKNPPAGVRKIILSTNIAETSITVNDVVFVIDSGKVKEKSFDALNFVTMLKMVWISKASAIQRKGRAGRCRPGICFRLFSRLRFQNMLEFQTPELLRMPLQELCLHTKLLAPVNCTIADFLMKAPEPPPALIVRNAVQMLKTIDAMDAWEDLTELGYHLADLPVEPHLGKMVLCAVVLKCLDPILTIACTLAYRDPFVLPTQASQKRAAMLCRKRFTAGTFSDHMALLRAFQAWQKARSDGWERAFCEKNFLSQATMEIIIGMRTQLLGQLRASGFVRARGGGDIRDVNTNSENWAVVKAALVAGMYPNLVHVDRENVILTGPKEKKVRFHPTSVLSQPQYKKIPPANGQAAAIQALPTDWLIYDEMTRAHRIANIRCCSAVTPVTVLVFCGPARLASNALQEPSSFRADGIPNDSSDSEMEDRTTANLAALKLDEWLNFKLEPEAASLLLQLRQKWHSLFLRRMRAPSKPWSQVDEATIRAIIAVLSTEEQSAGLQQPSGIGQRPRPMSSEELPLASSWRSNNSRKSTADTEFADGSTTGERVLMKSPSPALHPPQKYKDRGILHPKRSTDDRSDQSSVKSTDSSSYPSPCASPSPPSSGKGSKSPSPRPNMPIRYFIMKSSNLRNLEISQQKGIWSTTPSNERKLNRAFWESSMVYLVFSVQGSGHFQGFSRMSSEIGREKSQDWGSAGLGGVFKVEWIRKESLPFQFAHHLLNPWNDNKKVQISRDGQELEPQVGEQLLQLWERLPLGEKTTSD

Biological target: T1, methyltransferase-like protein 16 (METTL16) (mouse (endogenous in P10 testes))
Assay: affinity purification with mass spectrometry; P10 mouse testis lysates, IP with METTL16 antibody or IgG, Protein A magnetic beads, eluate analysed by LC-MS/MS (Q Exactive Plus, MaxQuant); repeated twice

binding | Binder
binds | B1
binds | B2
binds | B3
